In PubChem BioAssay AID2685 (National Center for Advancing Translational Sciences (NCATS), 2010):
This is one part of the list. Further columns of the screen follow, without active or inactive calls. The list favours compounds with an active or inconclusive main result. Words in brackets tell the shape of the fitted curve; partial curves, single points and poor fits give uncertain potencies.

Assay: qHTS Assay for Lipid Storage Modulators in Drosophila S3 Cells;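 as to cell number change: cells counted by Cell Tracker Red CMTPX staining in the red channel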
Details: BODIPY lipid droplet fluorescence, 18-24 h; for cell number change: measured here: cell count max response, cells fed with added oleic acid
In short: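 Laser-scanning cytometry quantifies lipid droplet accumulation (500–530 nm total intensity; droplet/cell object ratio) in oleic acid-fed (400 uM added) Drosophila S3 cells treated with a concentration series. 20 uM Triacsin C defined 100% inhibition.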

[1] = measured here: lipid fluorescence (Fed channel) AC50, cells fed with added oleic acid
[2] = measured here: cell number channel AC50, cells fed with added oleic acid

Row | Structure (SMILES) | cell number change | AC50 [1] | AC50 [2]
1 | C=CCOc1ccc(CNc2nn[nH]n2)cc1 | 1.53% | 3.26 µM [falling, single point] | –
2 | CC(C)C(NS(=O)(=O)c1ccc2c(c1)C(C)(C)C(=O)N2C)C(=O)NCc1ccccc1Cl (stereo not given) | 2.99% | 0.82 µM [rising, full curve, poor fit] | –
3 | N#Cc1cc(-c2ccccc2)nnc1Sc1ccc(F)cc1 | 41.2% | 6.51 µM [rising, single point] | 7.31 µM [rising, partial curve, poor fit]
4 | CCN(CC)S(=O)(=O)c1ccc(C)c(NC(=O)COC(=O)[C@@H]2CCCN2C(=O)c2cccs2)c1 | 55.5% | – | –
5 | COc1ccc(C2=CC(c3ccc(Cl)cc3)n3cnnc3N2)cc1OC (stereo not given) | -32.6% | 29.1 µM [falling, single point] | 16.4 µM [falling, single point]
6 | O=C(Nc1ccccc1N1CCN(c2ccc(F)cc2)CC1)C1CCCCC1 | 31.2% | 2.06 µM [rising, partial curve] | 1.64 µM [rising, partial curve]
7 | COc1ccc(CN2C(=NC(=O)C3CCCO3)SC3CS(=O)(=O)CC32)cc1OC (stereo not given) | 33.7% | – | 20.6 µM [rising, single point]
8 | O=C1CC(C2CCCO2)C(=O)N1c1ccc(Cl)c(Cl)c1 (stereo not given) | -40.4% | 9.2 µM [falling, partial curve] | 14.6 µM [falling, single point]
9 | CCOC(=O)c1nnc2ccnn2c1N | -16.2% | 4.11 µM [falling, single point] | –
10 | CN=C1NN=C(c2cc(C)n(-c3c(C)n(C)n(-c4ccccc4)c3=O)c2C)CS1 | -8.41% | 18.4 µM [rising, single point] | –
11 | Cc1ccc(-n2c(Cl)c(Cl)[nH]c(=O)c2=O)cc1 | – | 0.116 µM [falling, full curve, poor fit] | –
12 | O=C(c1ccco1)N1CCN(C(c2ccccc2Cl)c2nnnn2Cc2cccs2)CC1 (stereo not given) | 8.77% | 4.11 µM [rising, single point] | 5.8 µM [rising, single point]
13 | CCOC(=O)c1cnc(-n2[nH]c(C)cc2=O)[nH]c1=O | -12% | 0.116 µM [rising, full curve, poor fit] | 0.411 µM [rising, full curve, poor fit]
14 | CN1CCN(c2nc3c(c(=O)n(C)c(=O)n3C)n2Cc2ccccc2)CC1 | 6.57% | 29.1 µM [rising, single point] | –
15 | Cc1ccc2nc(SCC(=O)Nc3cccc(S(=O)(=O)N(C)C)c3)[nH]c2c1 | -20.7% | 29.1 µM [falling, single point] | –
16 | Cc1noc(C)c1C(=O)N(CC(=O)Nc1ccc(Cl)c(C(F)(F)F)c1)Cc1ccco1 | -10.8% | 13 µM [falling, partial curve] | –
17 | CNC(=O)c1nc[nH]c1C(=O)NC | -39% | – | 29.1 µM [falling, single point]
18 | COc1cc(C(=O)Nc2cc(C)ccn2)ccc1OCC(=O)N1CCOCC1 | -36.9% | – | 16.4 µM [falling, single point]
19 | CCOC(=O)C1(CC2CCCCO2)CCN(S(=O)(=O)c2ccc(C)s2)CC1 (stereo not given) | -17.6% | 23.1 µM [falling, single point] | –
20 | O=C(Oc1csc(=S)n1C(=O)c1ccccc1)c1ccccc1 | -64.8% | 3.66 µM [falling, full curve] | 1.3 µM [falling, full curve]

Row | Structure (SMILES) | cell number change | AC50 [1] | AC50 [2]
21 | O=[N+]([O-])c1cc(-c2n(-c3ccccn3)c3ccccc3[n+]2-c2ccccn2)ccc1Cl | – | 3.66 µM [falling, partial curve] | –
22 | COc1cc(/C=N/NC(=O)c2ccc(Cl)c(S(N)(=O)=O)c2)ccc1OCC(N)=O | 8.59% | 6.51 µM [rising, single point] | –
23 | CSc1ccc(CCNC(=O)C2CCCN(S(=O)(=O)N3CCOCC3)C2)cc1 (stereo not given) | – | 20.6 µM [rising, partial curve] | –
24 | Cc1ccc(Nc2nc(NCCO)c3ccccc3n2)cc1C | -33.1% | 0.13 µM [falling, full curve, poor fit] | 14.6 µM [falling, single point]
25 | COC(=O)c1nn(-c2ccc(OC)cc2)c(=O)cc1Oc1cccc(Cl)c1 | -24.4% | 29.1 µM [falling, single point] | –
26 | CCOc1ccc2nc(NC(=O)CSc3nc(SC)ns3)sc2c1 | -73.1% | 8.2 µM [falling, partial curve] | 16.4 µM [falling, partial curve]
27 | CCSc1nc(O)c(Cc2ccccc2)c(=O)[nH]1 | -35% | 29.1 µM [falling, single point] | 8.2 µM [falling, partial curve]
28 | O=C(Cn1c(NCCCO)nc2ccccc21)c1cccc(Br)c1 | 4.69% | 18.4 µM [rising, single point] | –
29 | Cn1c(SCC(=O)Nc2ccc3cn[nH]c3c2)nnc1-c1cnccn1 | -15.1% | 0.82 µM [rising, full curve, poor fit] | –
30 | CCc1nnc(NC(=O)C(C)N2C(=O)C3C4C=CC(C4)C3C2=O)s1 (stereo not given) | 17.7% | 29.1 µM [rising, single point] | –
31 | Cc1cccc(NC(=O)c2ccc3c(c2)CCN3S(C)(=O)=O)c1C | -9.68% | 0.82 µM [falling, full curve] | –
32 | COc1ccc(C(=O)NCc2ccc3c(c2)OCO3)cc1S(=O)(=O)N(C)Cc1ccccc1 | 9.07% | 1.64 µM [rising, partial curve] | –
33 | CN(Cc1cnn(Cc2ccccc2)c1)C(=O)c1cccc(S(=O)(=O)N2CCOCC2)c1 | 3.16% | 0.0259 µM [falling, full curve, poor fit] | –
34 | Cc1occc1-c1nnc(SCC(=O)N2CCCCC2C)o1 (stereo not given) | -2.08% | 1.64 µM [falling, partial curve, poor fit] | –
35 | COc1ccc(CCNC(=O)CSc2ccc(NC(C)=O)cc2)cc1OC | 9.91% | 0.82 µM [rising, full curve] | –
36 | CC(O)CSc1nc2c(c(=O)[nH]c(=O)n2C)n1Cc1ccccc1Cl (stereo not given) | -20.6% | 25.9 µM [falling, single point] | –
37 | COc1ccc(/C=C(/C#N)C(=O)Nc2cccc(C)c2C)cc1C(=O)O | – | 0.651 µM [rising, full curve] | 0.517 µM [rising, full curve, poor fit]
38 | COc1ccc(C2C(C(=O)NCc3cccnc3)c3ccccc3C(=O)N2C)cc1OC (stereo not given) | – | 2.31 µM [falling, full curve] | –
39 | CC(=O)Nc1ccc(-c2csc(-c3cccnc3)n2)cc1 | -14.4% | 29.1 µM [falling, single point] | –
40 | COc1ccc(-c2c(C)oc3c(CN4CCCC(C)C4)c(O)ccc3c2=O)cc1OC (stereo not given) | 31.9% | 0.58 µM [rising, single point] | –

15 entries already listed, arranged by heavy-atom count, high to low.
Row | Structure (SMILES) | cell number change | AC50 [1] | AC50 [2]
32 | COc1ccc(C(=O)NCc2ccc3c(c2)OCO3)cc1S(=O)(=O)N(C)Cc1ccccc1 | 9.07% | 1.64 µM [rising, partial curve] | –
38 | COc1ccc(C2C(C(=O)NCc3cccnc3)c3ccccc3C(=O)N2C)cc1OC (stereo not given) | – | 2.31 µM [falling, full curve] | –
40 | COc1ccc(-c2c(C)oc3c(CN4CCCC(C)C4)c(O)ccc3c2=O)cc1OC (stereo not given) | 31.9% | 0.58 µM [rising, single point] | –
7 | COc1ccc(CN2C(=NC(=O)C3CCCO3)SC3CS(=O)(=O)CC32)cc1OC (stereo not given) | 33.7% | – | 20.6 µM [rising, single point]
18 | COc1cc(C(=O)Nc2cc(C)ccn2)ccc1OCC(=O)N1CCOCC1 | -36.9% | – | 16.4 µM [falling, single point]
25 | COC(=O)c1nn(-c2ccc(OC)cc2)c(=O)cc1Oc1cccc(Cl)c1 | -24.4% | 29.1 µM [falling, single point] | –
29 | Cn1c(SCC(=O)Nc2ccc3cn[nH]c3c2)nnc1-c1cnccn1 | -15.1% | 0.82 µM [rising, full curve, poor fit] | –
36 | CC(O)CSc1nc2c(c(=O)[nH]c(=O)n2C)n1Cc1ccccc1Cl (stereo not given) | -20.6% | 25.9 µM [falling, single point] | –
26 | CCOc1ccc2nc(NC(=O)CSc3nc(SC)ns3)sc2c1 | -73.1% | 8.2 µM [falling, partial curve] | 16.4 µM [falling, partial curve]
24 | Cc1ccc(Nc2nc(NCCO)c3ccccc3n2)cc1C | -33.1% | 0.13 µM [falling, full curve, poor fit] | 14.6 µM [falling, single point]
39 | CC(=O)Nc1ccc(-c2csc(-c3cccnc3)n2)cc1 | -14.4% | 29.1 µM [falling, single point] | –
13 | CCOC(=O)c1cnc(-n2[nH]c(C)cc2=O)[nH]c1=O | -12% | 0.116 µM [rising, full curve, poor fit] | 0.411 µM [rising, full curve, poor fit]
27 | CCSc1nc(O)c(Cc2ccccc2)c(=O)[nH]1 | -35% | 29.1 µM [falling, single point] | 8.2 µM [falling, partial curve]
1 | C=CCOc1ccc(CNc2nn[nH]n2)cc1 | 1.53% | 3.26 µM [falling, single point] | –
9 | CCOC(=O)c1nnc2ccnn2c1N | -16.2% | 4.11 µM [falling, single point] | –

Remaining list, next part

Row | Structure (SMILES) | cell number change | AC50 [1] | AC50 [2]
41 | CC(c1ccccc1)N1CC(C(=O)O)CC1=O (stereo not given) | 21.5% | – | –
42 | Cc1ccc(C)c(OC(C)C(=O)Nc2nccs2)c1 (stereo not given) | -4.05% | 0.731 µM [rising, single point] | –
43 | O=C(O)C1CCCCC1C(=O)Nc1ccc(OCc2ccccc2)cc1 (stereo not given) | -10.2% | 20.6 µM [rising, partial curve] | –
44 | NC(=O)c1ccc(-n2nnnc2SCC(=O)Nc2ccccc2F)cc1 | 51.5% | – | 29.1 µM [rising, single point]
45 | CCOc1ccc(C(=O)Nc2ccccc2OC(F)F)cc1 | 57.9% | 23.1 µM [rising, single point] | 20.6 µM [rising, partial curve]
46 | CC(C)CCNC(=O)c1ccc2c(c1)N(Cc1ccccc1)C(=O)CS2=O (stereo not given) | – | 6.51 µM [rising, single point] | –
47 | O=C(NCC1CCCO1)c1nn2c(C(F)(F)F)cc(-c3cccs3)nc2c1Cl (stereo not given) | 4.7% | 1.64 µM [falling, partial curve, poor fit] | –
48 | CC(=O)c1c(C)[nH]c(C(=O)CN2C(=O)NC(C)(CCC(C)C)C2=O)c1C (stereo not given) | 28.3% | – | –
49 | COc1ccc(NC(=O)CNCCC2=CCCCC2)cc1 | 4.22% | – | –
50 | CCOC(=O)Cc1nnc(NC(=O)COc2ccc(F)cc2)s1 | -16% | 0.146 µM [rising, full curve] | –
51 | CC1CCCN(CCCNC(=O)c2ccc(N3CCCC3=O)cc2)C1 (stereo not given) | – | 9.2 µM [rising, partial curve] | –
52 | CCOC(=O)c1nnn(-c2nc(OC)nc(N3CCCCC3)n2)c1-c1ccccc1 | -11.7% | 0.00411 µM [falling, full curve, poor fit] | –
53 | C=C(C)COc1ccc(-c2nc(N)ncc2-c2ccc(Br)cc2)c(O)c1 | -23.4% | 29.1 µM [falling, partial curve, poor fit] | –
54 | COCCCNC(=O)CCc1c(C)nc2c(c(C)nn2-c2ccccc2)c1C | – | – | 0.00461 µM [rising, full curve, poor fit]
55 | CCCOc1ccc(S(=O)(=O)NCCCN2CCOCC2)c2ccccc12 | -15.1% | 16.4 µM [falling, partial curve] | –
56 | COc1cc(OC)cc(C(=O)N2CCN(S(C)(=O)=O)CC2)c1 | -13.3% | – | –
57 | O=C(COc1ccc(Cl)cc1)Nc1nc(-c2ccncc2)cs1 | 20.4% | 0.103 µM [rising, full curve, poor fit] | –
58 | CCOC(=O)N1CCN(C(=O)CN(C)S(=O)(=O)c2ccc(OCC)cc2)CC1 | 0.87% | 29.1 µM [rising, partial curve] | –
